# Measurements published in PubChem BioAssay AID720504 (National Center for Advancing Translational Sciences (NCATS), 2013).
# Chains of the proteins cited; added tags and fusions are not shown.
# UniProt P53350, whole entry, looked up: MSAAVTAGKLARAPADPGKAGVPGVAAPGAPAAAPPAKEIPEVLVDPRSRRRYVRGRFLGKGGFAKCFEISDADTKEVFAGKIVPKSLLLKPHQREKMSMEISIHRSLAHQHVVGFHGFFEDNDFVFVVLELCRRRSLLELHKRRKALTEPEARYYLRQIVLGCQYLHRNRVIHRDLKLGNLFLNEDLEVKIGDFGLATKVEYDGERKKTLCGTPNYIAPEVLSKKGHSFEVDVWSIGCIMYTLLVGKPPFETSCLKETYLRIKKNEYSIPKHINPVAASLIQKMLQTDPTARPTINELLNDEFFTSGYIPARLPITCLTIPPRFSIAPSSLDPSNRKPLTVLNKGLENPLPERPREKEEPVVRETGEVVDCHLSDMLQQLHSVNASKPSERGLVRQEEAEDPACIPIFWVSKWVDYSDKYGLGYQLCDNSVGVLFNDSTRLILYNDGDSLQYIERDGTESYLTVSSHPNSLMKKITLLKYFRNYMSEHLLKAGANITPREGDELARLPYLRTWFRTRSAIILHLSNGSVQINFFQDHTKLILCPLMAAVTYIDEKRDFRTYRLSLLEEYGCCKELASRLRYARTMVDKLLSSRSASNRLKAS
# The whole screen tested about 360,000 compounds, of which about 10,000 (2.8%) were called active. Inconclusive results, whose numbers are uncertain, are shown with a selection of clear calls. Calls come from the whole dose curve; as a rule, active = well fitted inhibition curve with a large enough effect; inconclusive = small, poorly fitted or top-dose-only effect; inactive = flat fitted curve, though single readings scatter. Where the call is inconclusive, the potency comes from a doubtful curve fit.
# Molecular target: Serine/threonine-protein kinase PLK1 (Homo sapiens) (UniProt P53350)
# Assay: qHTS for Inhibitors of PLK1-PDB (polo-like kinase 1 - polo-box domain): Primary Screen; note: nearly all actives have a fitted effect of over 65% in size; for max response, negative = inhibition: series mostly up to about 57 µM
# Conditions: Plk1 PBD binding of FITC phosphopeptide, fluorescence polarization
# % is set by controls: 0 for no effect and ±100 for the full control effect; potency is the fitted concentration of half-maximal effect.
Compound,"max response, negative = inhibition",Potency
COc1ccccc1CNC(=O)CCNS(=O)(=O)c1cccc2nonc12,inactive: 2.73%,–
CCC1(c2ccc(Cl)cc2)NC(=S)N(c2ccccc2)N1 (stereo unspecified),–,"inconclusive: 26.7 µM [inhibitor, partial curve]"
Brc1ccc2nc(-c3ccccc3)c(Cc3ccsc3)n2c1,–,"inconclusive: 33.6 µM [inhibitor, single point]"
CC(C)N(C(=O)[C@H]1C[C@H](CC(=O)NC(C)(C)C)C(=O)N2CCc3c([nH]c4cc(-c5ccco5)ccc34)[C@]12C)C(C)C,–,active: 21.2 µM
CN(C)/N=C/c1ccc(Sc2ccccc2[N+](=O)[O-])o1,–,active: 5.97 µM
COc1cc(OC)cc(OCC(O)Cn2ccnc2)c1 (stereo unspecified),inactive: -3.8%,–
CCOc1ccc(S(=O)(=O)N2CCCC(C(=O)Nc3ccccc3)C2)cc1 (stereo unspecified),inactive: -11.3%,–
O=C(/C=C/c1ccc(Br)o1)NC(c1ccccc1)c1ccccc1,–,"inconclusive: 29.9 µM [inhibitor, partial curve]"
CCOc1ccc(CN2CCCN(C)CC2)cc1,–,"inconclusive: 37.7 µM [inhibitor, single point]"
COc1ccc(N2CCN(CCCNC(=O)CN3C(=O)COc4ccccc43)CC2)cc1,–,"inconclusive: 13.4 µM [inhibitor, partial curve]"
COc1cc(NC(=O)c2ccco2)c(OC)cc1NC(=O)Nc1cccc(Cl)c1,–,"inconclusive: 37.7 µM [inhibitor, single point]"
CC(C)=CCN1CCN(Cc2cnc(C)s2)CC1CCO (stereo unspecified),inactive: -11.7%,–
O=c1c2ccccc2sn1-c1cccc(Cl)c1,–,active: 2.99 µM
Cc1c(Cl)cccc1NC(=O)CSc1nnnn1C,inactive: 1.28%,–
CCOc1cc(/C=C2/C(=N)N3C(=NC2=O)SN=C3S(=O)(=O)CC)ccc1OC(=O)c1ccco1,–,active: 26.7 µM
Cc1cccc(OCc2n[nH]c(=S)n2Cc2ccccc2)c1,inconclusive: -30.3% [inhibitor],–
O=C(NC(=S)Nc1ccccc1C(=O)O)c1ccc2ccccc2c1,–,"inconclusive: 26.7 µM [inhibitor, partial curve]"
O=C(OCCNC(=O)c1ccc2ccccc2n1)c1ccc(F)cc1,inactive: -10.9%,–
Nc1c(C(=O)NCC2CCCO2)sc(=S)n1-c1ccccc1 (stereo unspecified),–,active: 18.9 µM
Cc1ccc2cccc(OC(=O)c3c(F)cccc3Cl)c2n1,inactive: 4.42%,–
CCOC(=O)Cc1csc(NC(=O)c2ccco2)n1,inactive: -4.32%,–
C=C(c1ccccc1)c1ccc(N(C)C)cc1,inactive: -11.8%,–
COc1ccc(C2CC(c3c(-c4ccccc4)c4cc(Cl)ccc4[nH]c3=O)=NN2C(=O)CCC(=O)O)cc1 (stereo unspecified),–,"inconclusive: 21.2 µM [inhibitor, partial curve]"
COc1ccccc1NC(=O)CSc1nnc(NC(=O)C2CCC2)s1,–,"inconclusive: 37.7 µM [inhibitor, single point]"

Compound,"max response, negative = inhibition",Potency
CCOc1ccc(S(=O)(=O)Nc2nc3ccccc3nc2-n2ccc(=NC(=O)c3cccs3)cc2)cc1,–,"inconclusive: 8.44 µM [inhibitor, single point]"
O=C(NCc1ccccc1)c1nc(-c2c(F)cccc2F)oc1-c1ccccc1,inactive: 1.31%,–
Cc1ccc2c(C)c(C(=O)N3CCN(c4cnccn4)CC3)oc2c1C,inactive: 0.837%,–
CCNC(=S)N1CCN(c2ccc([N+](=O)[O-])cc2)CC1,–,active: 29.9 µM
Cc1ccc(-n2nc3c(=O)n(CC(=O)NC4CCCCCC4)nc(C)c3c2C)cc1,–,"inconclusive: 37.7 µM [inhibitor, single point]"
COc1ccc(C2C3C=CCC(c4cccc(-c5ccc(C)cc5)c4)C3C(=O)N2Cc2ccccc2)cc1Cl (stereo unspecified),–,"inconclusive: 16.8 µM [inhibitor, partial curve]"
O=C(Nc1ccc(CN2CCCCC2)cc1)c1c(F)c(F)c(F)c(F)c1F,inactive: 1.4%,–
CCCc1nc(SCC(=O)c2ccc(F)cc2)c2ccccc2n1,–,"inconclusive: 29.9 µM [inhibitor, partial curve]"
COc1ccccc1C(=O)NC(=S)NNC(=O)c1sc2ccccc2c1Cl,inactive: -25.5%,–
CCN(C(=O)CSc1nnc(Nc2ccc(OC)cc2)s1)C1CCS(=O)(=O)C1 (stereo unspecified),inactive: -27.1%,–
CC(C)(C)Cc1nnc(NC(=O)CCC2CCCCC2)s1,–,"inconclusive: 23.8 µM [inhibitor, partial curve]"
Cc1ccc(S(=O)(=O)/N=C2/NC(=O)/C(=C/c3ccc(Br)o3)S2)cc1,–,"inconclusive: 21.2 µM [inhibitor, single point]"
CC(C)C[C@@H](CNCC(=O)[C@H](Cc1c[nH]c2ccccc12)NC(=O)c1[nH]cnc1C(=O)N[C@@H](C)CN)NC(=O)c1nc[nH]c1C(=O)N[C@@H](CC(=O)O)C(=O)O,–,active: 26.7 µM
CCOc1ccccc1/C=N/n1c(C2CCCCC2)n[nH]c1=S,–,"inconclusive: 23.8 µM [inhibitor, partial curve]"
CCOc1cc(CNC)ccc1OCC(=O)NC(C)(C)C,inactive: -9.78%,–
O=c1c(-c2ccco2)nc2ccccc2n1C(c1ccccn1)c1nc2ccccc2[nH]1 (stereo unspecified),–,"inconclusive: 13.4 µM [inhibitor, partial curve]"
COC(=O)c1ccc(C(=O)Nc2ccc3nc(-c4ccncc4)[nH]c3c2)cc1,inactive: -1.7%,–
COc1cc(/C=C2\C(=N)N3N=C(C)SC3=NC2=O)cc(OC)c1OCCOc1ccccc1C,–,"inconclusive: 29.9 µM [inhibitor, partial curve]"
O=C(O)c1ccc(S(=O)(=O)Nc2ccc(O)c(Sc3nc4ccccc4s3)c2)cc1,–,active: 26.7 µM
Cc1ccc(NC(=O)c2cc(-c3ccc(C)o3)nc3ccccc23)nc1,–,"inconclusive: 29.9 µM [inhibitor, partial curve]"
OC(CN1c2ccccc2Sc2ccccc21)Cn1nnc2ccccc21 (stereo unspecified),inactive: -9.07%,–
O=C(O)C1C2C=CC(O2)C1C(=O)NCCC1=CCCCC1 (stereo unspecified),–,"inconclusive: 29.9 µM [inhibitor, partial curve]"
Cc1ccc(C2C=C(c3ccccc3)Nc3nc(N4C(=O)CCC4=O)nn32)cc1 (stereo unspecified),–,"inconclusive: 23.8 µM [inhibitor, single point]"
Cc1sc2nc(COC(=O)c3ccc(N4CCCC4)c([N+](=O)[O-])c3)[nH]c(=O)c2c1C,inactive: -5.56%,–

# Random excerpt: 4 entries already listed, in no set order.
Compound,"max response, negative = inhibition",Potency
Cc1ccc(C2C=C(c3ccccc3)Nc3nc(N4C(=O)CCC4=O)nn32)cc1 (stereo unspecified),–,"inconclusive: 23.8 µM [inhibitor, single point]"
O=C(Nc1ccc(CN2CCCCC2)cc1)c1c(F)c(F)c(F)c(F)c1F,inactive: 1.4%,–
CC(C)(C)Cc1nnc(NC(=O)CCC2CCCCC2)s1,–,"inconclusive: 23.8 µM [inhibitor, partial curve]"
Cc1ccc(NC(=O)c2cc(-c3ccc(C)o3)nc3ccccc23)nc1,–,"inconclusive: 29.9 µM [inhibitor, partial curve]"

# Following part

Compound,"max response, negative = inhibition",Potency
Cc1nc(-c2cccc(S(=O)(=O)N3CCOCC3)c2)cs1,–,active: 9.47 µM
COC(=O)c1ccc(-n2c(C)cc(/C=N/n3cnnc3)c2C)cc1,–,"inconclusive: 33.6 µM [inhibitor, single point]"
CCN(CC)c1nc(N(CC)CC)[nH]c(=O)n1,inactive: -5.9%,–
Cc1nn(-c2ccccc2)c(N)c1Sc1cccc([N+](=O)[O-])c1,–,"inconclusive: 10.6 µM [inhibitor, partial curve]"
CCN(CC(=O)NCc1ccc(Cl)cc1)C(=O)c1cc2ccccc2o1,inactive: -9.39%,–
O=C1CC(Sc2nnnn2-c2ccccc2)C(=O)N1c1cccc(Cl)c1 (stereo unspecified),–,"inconclusive: 29.9 µM [inhibitor, partial curve]"
Cc1cc(C)nc(SCc2cc(=O)c(OC(=O)c3ccc(Cl)c([N+](=O)[O-])c3)co2)n1,–,"inconclusive: 23.8 µM [inhibitor, partial curve]"
COc1ccc(CCNC(=O)C2CCN(C(=O)c3ccc(Br)cc3)CC2)cc1,–,active: 26.7 µM
CC1Oc2ccccc2C=C1/C=N/NC(=O)c1ccccc1O (stereo unspecified),–,"inconclusive: 21.2 µM [inhibitor, partial curve]"
CC1(C)Cc2c(sc3c2C2=NCCN2C=N3)CS1,–,"inconclusive: 37.7 µM [inhibitor, single point]"
COc1ccc(NC(=O)C(NC(C)=O)C(=O)NCc2ccccc2Cl)cc1 (stereo unspecified),–,active: 15 µM
N#CC1=C(Nc2ccccc2Cl)SC(c2ccccc2O)NC1=O (stereo unspecified),–,"inconclusive: 21.2 µM [inhibitor, single point]"
CS(=O)(=O)NN1C(=O)c2ccccc2NC1c1cccs1 (stereo unspecified),–,"inconclusive: 26.7 µM [inhibitor, partial curve]"
O=C(Nc1ccccc1C(=O)O)c1cccc(S(=O)(=O)Nc2ccc(Br)cc2)c1,–,"inconclusive: 26.7 µM [inhibitor, single point]"
CC(=O)N1c2ccc(S(=O)(=O)NCC3CCC(C(=O)N4CCCCC4)CC3)cc2CC1C (stereo unspecified),inactive: -13.4%,–
CCOC(=O)c1c(C)[nH]c(C)c1C(=O)COC(=O)c1ccc(Cl)c(S(=O)(=O)NCc2ccccc2)c1,–,"inconclusive: 26.7 µM [inhibitor, single point]"
CC(=O)c1cccc(OCc2cc(C(=O)N(C)CCC3CCOCC3)no2)c1,–,"inconclusive: 23.8 µM [inhibitor, single point]"
Cc1cccc(OCC(=O)NCC2CCCO2)c1C (stereo unspecified),–,"inconclusive: 4.23 µM [inhibitor, full curve]"
Cc1cc(=O)[nH]c(SCC(=O)Nc2ccccc2C#N)c1C#N,–,"inconclusive: 29.9 µM [inhibitor, partial curve]"
CC(C)(C)c1ccc(OCc2ccc(C(=O)N/N=C/c3ccc(O)c(O)c3)cc2)cc1,inactive: -7.55%,–
COc1ccc(N(C(C)C(=O)Nc2cccnc2)S(C)(=O)=O)cc1 (stereo unspecified),inactive: -4.94%,–
Cn1c(=O)n(Cc2ccccc2Cl)c2ccccc21,–,active: 16.8 µM
CC(=O)OCC1=C(C(=O)O)N2C(=O)C(NC(=O)C(C)Cn3nc(C)c(Cl)c3C)C2SC1 (stereo unspecified),–,"inconclusive: 18.9 µM [inhibitor, partial curve]"
